Test results as given in publication PMC12172478.
No constants are given. Whether binding was seen depends on the method and setting. Binding seen in cells or lysates may run through a third protein. Binding calls can cover weak binding; strength is not graded here.

Sequences of proteins named here, by UniProt entry; tags and fusion partners are left off.
UniProt O56129: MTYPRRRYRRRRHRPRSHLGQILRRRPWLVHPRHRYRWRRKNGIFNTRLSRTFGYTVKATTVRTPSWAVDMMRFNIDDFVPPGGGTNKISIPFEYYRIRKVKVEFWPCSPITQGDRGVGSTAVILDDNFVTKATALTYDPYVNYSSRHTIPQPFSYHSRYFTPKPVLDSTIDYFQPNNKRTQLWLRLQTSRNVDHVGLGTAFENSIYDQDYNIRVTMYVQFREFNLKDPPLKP

Molecular target: FLAG-DDX10 (porcine (cDNA from PK-15 cells)) (UniProt F1SV16)
Experiment: co-IP; HEK293T cells co-transfected with the two plasmids for 48 h; NP-40 lysis buffer; immunoprecipitated with anti-FLAG beads, anti-GFP mAbs or glutathione agarose beads; washed three times; Western blot

GFP-PCV2-Cap (from UniProt O56129 1-233)
binding: binds
